Test system: FeLV retrovirus

CCCCCCCCCCCCCCCC[n+]1ccccc1 [CPC, Cetylpyridinium chloride]
effect of presence or absence of sera on CPC mediated inactivation: no effect
